Assay results as given in patent US20240117029A1.
These are yes or no findings as the source states them, for the method shown.

B1: 1A5 (antibody, V domains shown)
VH: QEQLVESGGDLVKPEGSLTLTCTASGFSFSTSYWMCWVRQAPGKGLELIACISSSIGVTYYASWAEGRFTISKTSSTTVTLQMTSLTVADTATYFCARTTDDNWNVGFNLWGPGTLVTVSS
VL: AYDMTQTPASVEVGVGGTVTIKCQASQSIGNRYLSWYQQKPGQPPKLLIYGTSTLASGVSSRFKGSGSGTQFTLTISGVESADSATYYCQQGATISYLDNAFGGGTEVVVK
B2: 1G9 (antibody, V domains shown)
VH: QSLEESGGDLVKPGASLTLTCKASGIDFSLYSYMCWVRQAPGKGLEWIACVDAGASGSTYYASWAKGRFTISKTSSTTVTLQMTSLTAADTATYFCARGILYYTWPYPAGAIDAFDSWGPGTLVTVSS
VL: AYDMTQTPASVSEPVGGTVTIKCQASESISNYLSWYQQKPGQPPKLLIYKASTLASGVPSRFKGSGSGTEYTVTISGVQSDDAATYYCQQSYSSSNVFNTFGGGTEVVVK
B3: Humanized 11K2 (antibody, human IgG1, V domains shown)
VH: QVQLVQSGAEVKKPGSSVKVSCKASGLTISDTYMHWVRQAPGQGLEWMGRIDPANGNTKFDPKFQGRVTITADTSTSTAYMELSSLRSEDTAVYYCARGVFGFFDYWGQGTTVTVSS
VL: DIQMTQSPSSLSASVGDRVTITCKATEDIYNRLAWYQQKPGKAPKLLISGATSLETGVPSRFSGSGSGTDYTLTISSLQPEDFATYYCQQFWSAPYTFGGGTKVEIK

molecular target: huCCL13 wild type; test: SPR (Biacore T200), 25 C, pH 7.4; antibody captured on anti-human IgG (Fc), chemokine injected at 5 nM and 20 nM

Binder	binding
B1	no binding (tested: 20 nM)
B2	no binding (tested: 20 nM)
B3	no binding (tested: 20 nM)
